PubChem BioAssay AID1259254 – NCATS | 2017
Aim: 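Finding genes that stop cells copying their DNA twice in one cycle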 (primary screen). Cell system: human HCT116 colorectal cancer cells. Reagent: single siRNA against human genes. Duration: 3 days. Read-out: 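Nuclei stained with Hoechst and imaged; cell-cycle phase assigned by DNA content; G2 share scaled per plate, non-targeting siRNA 0%, GMNN siRNA 100%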. Scale: G2 robust z-score and G2 cells, % of GMNN control: higher = more G2 cells, more excess DNA replication; raw share of cells in G2: higher = larger share of cells with G2 DNA content. Rule for the call: 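An siRNA counts as active if its G2 robust z-score lies at least 5 MADs above the screen median; here such calls match roughly 38% of GMNN control or more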.
Here is an unselected part of about 59,000 reagents tested. About 1,550 of all reagents (2.6%) count as active. 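G2 share is only a proxy for re-replication; each gene was hit by three separate siRNAs, and active genes were retested.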 Raw values are not corrected between plates. Reagents against one gene are numbered here. No sequences are given here. Not stated in the record: the amount of reagent.

| G2 robust z-score | G2 cells, % of GMNN control | raw share of cells in G2 (%) | Call | gene symbol | reagent no. |
| --- | --- | --- | --- | --- | --- |
| 7 | 52.2 | 20.9 | active | SHISA7 | 1 |
| 0.71 | 7.96 | 6.08 | inactive | SHISA7 | 2 |
| 1.7 | 14.9 | 9.96 | inactive | SHISA7 | 3 |
| -0.387 | 0.245 | 4.27 | inactive | NDUFAF6 | 1 |
| -0.606 | -1.29 | 2.69 | inactive | NDUFAF6 | 2 |
| 0.281 | 4.95 | 4.37 | inactive | NDUFAF6 | 3 |
| -0.227 | 1.37 | 4.93 | inactive | CCNL1 | 1 |
| -1.45 | -7.21 | 3.27 | inactive | CCNL1 | 2 |
| -0.845 | -2.98 | 3.09 | inactive | CCNL1 | 3 |
| 0.997 | 9.99 | 6.76 | inactive | TWSG1 | 1 |
| -0.65 | -1.6 | 2.34 | inactive | TWSG1 | 2 |
| 6.02 | 45.3 | 21.4 | active | TWSG1 | 3 |
| -0.416 | 0.039 | 2.81 | inactive | PGAP2 | 1 |
| -1.4 | -6.88 | 2.8 | inactive | PGAP2 | 2 |
| 2.51 | 20.7 | 10.1 | inactive | PGAP2 | 3 |
| -0.241 | 1.27 | 5.7 | inactive | UBXN8 | 1 |
| 0.564 | 6.94 | 6.64 | inactive | UBXN8 | 2 |
| 1.23 | 11.7 | 7.47 | inactive | UBXN8 | 3 |
| 4.53 | 34.8 | 18.3 | inactive | CCRL2 | 1 |
| 0.378 | 5.63 | 6.48 | inactive | CCRL2 | 2 |
| -0.134 | 2.03 | 3.89 | inactive | CCRL2 | 3 |
| 2.13 | 17.9 | 10.3 | inactive | CCRL2 | 4 |
| -0.908 | -3.42 | 1.67 | inactive | CCRL2 | 5 |
| -0.809 | -2.72 | 2.57 | inactive | CCRL2 | 6 |
| 0.675 | 7.72 | 9.05 | inactive | SEMA6C | 1 |
| 0.241 | 4.66 | 5.35 | inactive | SEMA6C | 2 |
| 3.53 | 27.8 | 17.4 | inactive | SEMA6C | 3 |
| -0.332 | 0.632 | 3.81 | inactive | BEND6 | 1 |
| -0.113 | 2.18 | 3.88 | inactive | BEND6 | 2 |
| -0.71 | -2.03 | 2.55 | inactive | BEND6 | 3 |
| 3.38 | 26.8 | 14.8 | inactive | LENG9 | 1 |
| -1.03 | -4.3 | 3.72 | inactive | LENG9 | 2 |
| 1.22 | 11.5 | 8.68 | inactive | LENG9 | 3 |
| -0.561 | -0.978 | 4.61 | inactive | CDH1 | 1 |
| 0.836 | 8.85 | 8.23 | inactive | CDH1 | 2 |
| 0.273 | 4.89 | 5.78 | inactive | CDH1 | 3 |
| 3.82 | 29.9 | 19.5 | inactive | PELO | 1 |
| -1.14 | -5.08 | 2.37 | inactive | PELO | 2 |
| -0.675 | -1.78 | 3.12 | inactive | PELO | 3 |
| 0.763 | 8.33 | 8.25 | inactive | PSME4 | 1 |
| -0.819 | -2.79 | 2.98 | inactive | PSME4 | 2 |
| 0.405 | 5.82 | 5.35 | inactive | PSME4 | 3 |
| -0.0171 | 2.85 | 5.21 | inactive | LOC729770 (retired record) | 1 |
| -0.858 | -3.07 | 2.18 | inactive | LOC729770 (retired record) | 2 |
| 0.0483 | 3.31 | 4.38 | inactive | LOC729770 (retired record) | 3 |
| -0.152 | 1.9 | 5.4 | inactive | PRPH | 1 |
| -1.07 | -4.54 | 3.42 | inactive | PRPH | 2 |
| -0.764 | -2.41 | 3.34 | inactive | PRPH | 3 |

Ordered by “raw share of cells in G2 (%)” (descending): 2 of the entries above.
| G2 robust z-score | G2 cells, % of GMNN control | raw share of cells in G2 (%) | Call | gene symbol | reagent no. |
| --- | --- | --- | --- | --- | --- |
| 1.22 | 11.5 | 8.68 | inactive | LENG9 | 3 |
| -0.561 | -0.978 | 4.61 | inactive | CDH1 | 1 |
